Legend:
[1] = system: osteoarthritis in the SI joint; conditions: about 100 horses, 4-22 years, 0.2 mg/kg intravenous
Procedure: The following experiments were performed during November 2015-May 2016. In various veterinarian locations in the Netherlands the animals were treated or occasionally the animals were treated on a farm in a stable.

experimental OA = conditions: cited from earlier work
[2] = cited from earlier work

NCCCC(O)(P(=O)(O)O)P(=O)(O)O.O.O.O [Alendronate, [4-amino-1-hydroxy-1-(hydroxy-oxido-phosphoryl)-butyl]phosphonic acid trihydrate]
horses free of complaints for the SI joint [1]: Most horses were free of complaints for the SI joint within a relative short period of time, some even within a week | effect on bone turnover and subchondral bone (experimental OA): prevented increased bone turnover and preserved the structural integrity of subchondral bone | esophageal irritation after oral dosage [2]: can cause irritation and inflammation of the esophagus

Reference: patent US20210008083A1, “USE OF A BISPHOSPHONATE SALT IN A MEDICAMENT FOR A NATURALLY OCCURRING DISEASE/DISORDER IN A MAMMAL” (Ostafit B.V., priority 2016, published 2021)
